# Source: the supplement of paper PMC5949888
# Most values lie at the floor of the assay. Slopes are relative: functional sequences can read slightly below zero.
# Tested on: Saccharomyces cerevisiae PS128 hsf1 delta, HSF1(1-493) fusion
# Test: growth estimate (transactivation domain function in HSF1 fusion, heat-shock survival) (a.u. (slope of normalised read count over time)); higher = stronger growth at 37°C, i.e. more transactivation activity
# Conditions: library: random library
row,Substance,growth estimate
1,VRRGRCVLSS,< -0.25
2,VRRISLWVP,< -0.25
3,VRRKIIEP,< -0.25
4,VRRLSMCSTGLPMRGPYHIV,< -0.25
5,VRRPVLCQP,< -0.25
6,VRRVIAEDGVH,< -0.25
7,VRRYICA,< -0.25
8,VRSCILQV,< -0.25
9,VRSGGQCSPCASGRTFPQL,< -0.25
10,VRSGPGYL,< -0.25
11,VRSHPVVMDAAVNLGSQNPG,< -0.25
12,VRSKYDKCHVRRHVHLSKAP,< -0.25
13,VRSLLPAITTRDFVEEPASP,-0.248
14,VRSLVSVGVGTGTRLLMEPR,< -0.25
15,VRSNFDYN,-0.231
16,VRSPRTDMRSSRRKATLWHI,< -0.25
17,VRSQICGERSKESTFQDSSC,< -0.25
18,VRSSVPVYSQYLESSPRGLM,< -0.25
19,VRSSYAGYFAGILRLQRLF,< -0.25
20,VRSTRGLVACLCTVSTPVAG,< -0.25
21,VRTHEGTSRLPKRTFLAEPH,< -0.25
22,VRTHN,-0.248
23,VRTVGTG,< -0.25
24,VRTVLMKKEKNWSSIRVRAS,< -0.25
25,VRTYTVSS,< -0.25

row,Substance,growth estimate
1,VRVEVMWTTYLFFRYHGAED,< -0.25
2,VRVHKTGQW,< -0.25
3,VRVLRLTALGSYSDLSVHLY,< -0.25
4,VRVNVACPRPVTNSWVRGSK,< -0.253
5,VRVSADTTKGRVRWPRSSS,< -0.25
6,VRVSVHEASYSDFRRNNVAG,< -0.25
7,VRVTVPAHDISLITART,< -0.25
8,VRVVTARELYTTQKNCRVRN,< -0.25
9,VRYWSTNWFVKTLLPTCF,< -0.25
10,VSAAWWVNRVLAGGMLEVTN,< -0.25
11,VSAPK,< -0.25
12,VSAYVAGVESRIVAWFLVHA,< -0.25
13,VSC,< -0.25
14,VSCLKLTRSYPTWI,< -0.25
15,VSCTGSWVKGARGSRPMSFT,< -0.25
16,VSDI,< -0.25
17,VSDPSPEGRKRFQLVKKPVS,< -0.25
18,VSDSYIIVM,< -0.25
19,VSETRRAGTSPHS,< -0.25
20,VSEVCDMLRFCI,< -0.25
21,VSFGRVRFILRPLGRFCPD,< -0.25
22,VSGAAFLMGTRAYVSRGAWA,< -0.25
23,VSGAKLSRRCRMGLPGSHRR,-0.243
24,VSGDPRFPPSRTKLAMVAEL,< -0.25
25,VSGHGDIAFREDPTGAKRAY,< -0.25

# As a short view, part of the list above.
row,Substance,growth estimate
16,VSDI,< -0.25
17,VSDPSPEGRKRFQLVKKPVS,< -0.25
18,VSDSYIIVM,< -0.25

# Continuation.

row,Substance,growth estimate
1,VSGISGFERVWIVVR,< -0.25
2,VSGRPWRIAQRV,< -0.25
3,VSGRWGEWGRSLHYSANLVR,< -0.25
4,VSHHLCTCALE,< -0.25
5,VSHLSSRASRIMNAGAWAKR,< -0.25
6,VSIAFSTAGDRECQRHNE,< -0.25
7,VSIASRPNRLRCTRQRPSPR,< -0.25
8,VSK,< -0.25
9,VSKEQCSAPRECTAKREMFN,< -0.25
10,VSLCQGGNGLEEHLC,< -0.25
11,VSLVSAGGRLQRRGAYRDVL,< -0.25
12,VSQLSLLEFYLRLALPTQKA,< -0.25
13,VSQRSRFKLNETTRVW,< -0.25
14,VSRA,< -0.25
15,VSRAASRASVLEVVDPTGRG,< -0.25
16,VSRGLAFGLRLTTASSFHFH,-0.0602
17,VSRPG,< -0.25
18,VSRQGNPRGIYSPD,< -0.25
19,VSRRTGRKNVQGNVLTTRRR,< -0.25
20,VSRSYGPGRCP,< -0.25
21,VSSAD,< -0.25
22,VSSCAG,< -0.25
23,VSSCDQTWDRKNKGYFLVCI,< -0.25
24,VSSCMDGIDETKESRGAHTY,< -0.25
25,VSSKLYPSQTIPICVHEYGH,< -0.25

# Looked up one by one from the list above (7):
row,Substance,growth estimate
18,VSRQGNPRGIYSPD,< -0.25
23,VSSCDQTWDRKNKGYFLVCI,< -0.25
1,VSGISGFERVWIVVR,< -0.25
12,VSQLSLLEFYLRLALPTQKA,< -0.25
13,VSQRSRFKLNETTRVW,< -0.25
24,VSSCMDGIDETKESRGAHTY,< -0.25
20,VSRSYGPGRCP,< -0.25

# Going on with the list:

row,Substance,growth estimate
1,VSSKMPLHVR,< -0.25
2,VSSPTGIERPVYPVLGFIMH,< -0.25
3,VSSRTSEEIPISRGLVLWAP,< -0.25
4,VSSSRGV,< -0.25
5,VSTHSPSYRNL,< -0.25
6,VSTIDPMRPQPGFSGARRVV,< -0.25
7,VSTRALSTLIALTSYPHEWI,< -0.25
8,VSTRVKLTARACIPCVLLT,< -0.25
9,VSTSHLTDSKVMFEFDPYAR,< -0.25
10,VSTSQVAHGVWSVTIRAGRR,< -0.25
11,VSTVNLRL,< -0.25
12,VSV,< -0.25
13,VSVDS,< -0.25
14,VSVESGLCDLHGQRQGRLAQ,< -0.25
15,VSVGRATKSHICNLRVH,< -0.25
16,VSVSGCHEIGG,< -0.25
17,VSVTRIIVEYGTGHSAKGTG,< -0.25
18,VSVVSTLNTTAVVG,< -0.25
19,VSVYHQEMQFYWH,< -0.25
20,VSWILFTYACNGQKS,< -0.25
21,VSYDVAFRVQFDRALGSSTT,< -0.25
22,VSYRCSTQSEALSSMLTGRA,< -0.25
23,VSYSCACDCGETFRTRLWTT,< -0.25
24,VTAETQVSRNKGVTYDDRPF,< -0.25
25,VTAGVGSQT,< -0.25

row,Substance,growth estimate
1,VTARSSDVVLSLDTRPARPC,< -0.25
2,VTATCHLSRSK,< -0.25
3,VTCNPRYGA,< -0.25
4,VTDIDCEVLMEVDSHGFKLP,< -0.25
5,VTDIRLTESIRSCVTKSLRT,< -0.25
6,VTEF,-0.243
7,VTEKEVRFGRLKGVLRDRRL,< -0.25
8,VTGADTDRTTGLVHNRADTG,< -0.25
9,VTGFALPPVPDMGIILGKDQ,< -0.25
10,VTGFNR,< -0.25
11,VTGRKRIRYLGHPEWTPNIW,< -0.25
12,VTGRSIQCNVCVTVSSVGDS,< -0.25
13,VTGSLFEVQ,< -0.25
14,VTI,< -0.25
15,VTKAALHRFVYISTNRE,< -0.25
16,VTKSQPHV,< -0.25
17,VTLGPIGWACPFVYKQGHIW,< -0.25
18,VTLLFVVVREPYNLAGV,< -0.25
19,VTPDRD,< -0.25
20,VTPLAELMAPLAGGIADSVA,-0.246
21,VTQVASSSLVSLIASARYRP,< -0.25
22,VTRATHRVADRIRSLLTRMV,< -0.25
23,VTRDLPRMFQVFVR,< -0.25
24,VTRLMLLRRFMPIPFGKIRT,< -0.25
25,VTRQPCGGWLGPVRRNKLCE,< -0.25

row,Substance,growth estimate
1,VTSIK,< -0.25
2,VTSLVD,-0.115
3,VTSSHSTYGMAASLRNAESQ,< -0.25
4,VTTAKKLLAKEVV,< -0.25
5,VTTVKVQGVGGWCARSTTFY,< -0.25
6,VTTWCPL,< -0.25
7,VTVFAGTYAWVSRTFSRSGQ,-0.222
8,VTVSERYGFFKE,< -0.25
9,VTWEEYPIAVN,< -0.25
10,VTYHEVAALEL,< -0.25
11,VVARESAQDAKFGSGASI,< -0.25
12,VVARRPFMTRLGVFNCERPR,0.525
13,VVDLFTRSLQTVGRVPGLSG,< -0.25
14,VVDSCSPSHDVRLNCYTLSG,< -0.25
15,VVEESLCYAGR,< -0.25
16,VVEPCKRPARSR,< -0.25
17,VVFAGHKGRPLCDRLVYVAS,< -0.25
18,VVFLMVFRVSCYLSPRSRTF,< -0.25
19,VVFVPERTVATFEG,< -0.25
20,VVG,< -0.25
21,VVGC,< -0.25
22,VVGCSLVLTRQFVYQKRLSA,< -0.25
23,VVGDWNEACASDRLRCSTTD,< -0.25
24,VVGGIVGPTYGARADSAFWS,< -0.25
25,VVGGRLGRPHRCRGELASYL,< -0.25

row,Substance,growth estimate
1,VVGSVSKNIKLMFDRTVPAP,< -0.25
2,VVHG,< -0.25
3,VVISANVCPWGSCEHARVPS,< -0.25
4,VVISGIFVIYARA,< -0.25
5,VVKCCLRFDWELNHGPEVPR,-0.178
6,VVKSATRADVNSGGRESKSE,< -0.25
7,VVLINPCSNRLHVGSSVPIS,< -0.25
8,VVLIRILEEMDSQVGTVRPG,< -0.25
9,VVLITSPKLCRSVGARGLER,< -0.25
10,VVLWRL,< -0.25
11,VVMDELVEVAELSDL,< -0.25
12,VVNTQHSGVN,< -0.25
13,VVPEGVHCERP,< -0.25
14,VVPEIEEI,< -0.25
15,VVPGIEVDRLMTMLHNIDST,< -0.25
16,VVPPGWMGVLPVTHANSQEI,< -0.25
17,VVPSLVQPEAEPGGI,< -0.25
18,VVQVDHRFEHGAGSRGPESR,< -0.25
19,VVQWFRHVTAPGYRSLLQAG,< -0.25
20,VVR,< -0.25
21,VVRDLIGLRYPTTYRITRAA,< -0.25
22,VVRGDLLPMLRLKVTAPRWR,< -0.25
23,VVRGGTLVARSTNVFMHLRR,< -0.25
24,VVRGGWASEQVVIV,< -0.25
25,VVRIKDCEF,< -0.25

# Part of the list above, with bars between the fields.
row | Substance | growth estimate
8 | VTVSERYGFFKE | < -0.25
9 | VTWEEYPIAVN | < -0.25
10 | VTYHEVAALEL | < -0.25

# (list continues)

row,Substance,growth estimate
1,VVRTPCLTWRWGRAHDTPDA,< -0.25
2,VVS,< -0.25
3,VVSL,< -0.25
4,VVT,< -0.25
5,VVTCVNVATLRSP,< -0.25
6,VVTIYRQWQLHC,< -0.25
7,VVTLLSYVYPAVPKLSEGCV,< -0.25
8,VVTLQRGLWGRRCQY,< -0.25
9,VVTRGGLLSWKHSRPHNEIA,< -0.25
10,VVTWEPH,-0.127
11,VVVETCRVCGTI,< -0.25
12,VVVVVEN,< -0.25
13,VVWQA,< -0.25
14,VVYAVKERNFRDGVDDCIKS,0.0276
15,VVYGSRNFGMYGEGGRQGRN,< -0.25
16,VVYLYLPFKDVDS,< -0.25
17,VVYRRTRK,< -0.25
18,VWARMENRYSRFLATGTDSA,< -0.25
19,VWATDNQPLAGRFVRLSTLV,< -0.25
20,VWCEGSSQSACKTRHIRVMG,< -0.25
21,VWDPRNPMEMHRQAR,< -0.25
